Results are given in words; binding and its absence hold for the method and conditions named. Some results given as binding are weak or reduced against the parent protein; the word gives no strength. One block for each binder: values may come before it.
Columns and labels:
[1] = biological target: Mdm2 (construct limits not stated) (UniProt Q00987); assay: fluorescence anisotropy titration
[2] = biological target: T1, bovine serum albumin (bovine, UniProt P02769 25-607); assay: fluorescence anisotropy titration
T1 construct: also called BSA

By UniProt entry, the sequences of proteins in these tests, tags left out. Residues count along the entry.
UniProt Q00987, residues 2-125: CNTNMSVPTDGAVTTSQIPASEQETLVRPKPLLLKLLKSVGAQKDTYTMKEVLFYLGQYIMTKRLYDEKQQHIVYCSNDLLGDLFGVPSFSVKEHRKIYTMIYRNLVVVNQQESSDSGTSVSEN
UniProt P02769, residues 25-607: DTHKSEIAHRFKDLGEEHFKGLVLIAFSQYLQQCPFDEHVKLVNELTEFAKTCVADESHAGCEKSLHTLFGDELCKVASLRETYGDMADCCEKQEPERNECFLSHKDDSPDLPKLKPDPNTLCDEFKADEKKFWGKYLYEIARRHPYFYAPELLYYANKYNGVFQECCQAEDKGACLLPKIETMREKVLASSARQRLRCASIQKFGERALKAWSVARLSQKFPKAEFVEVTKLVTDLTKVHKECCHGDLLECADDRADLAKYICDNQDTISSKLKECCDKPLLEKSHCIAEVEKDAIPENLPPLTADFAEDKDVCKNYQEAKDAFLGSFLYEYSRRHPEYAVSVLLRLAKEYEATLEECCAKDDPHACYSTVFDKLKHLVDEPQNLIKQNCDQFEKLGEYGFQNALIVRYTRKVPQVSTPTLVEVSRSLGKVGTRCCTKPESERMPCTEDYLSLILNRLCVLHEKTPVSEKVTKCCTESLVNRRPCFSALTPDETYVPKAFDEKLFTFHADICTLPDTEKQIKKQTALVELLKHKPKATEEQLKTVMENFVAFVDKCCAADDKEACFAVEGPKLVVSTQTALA
UniProt P03952, residues 20-638: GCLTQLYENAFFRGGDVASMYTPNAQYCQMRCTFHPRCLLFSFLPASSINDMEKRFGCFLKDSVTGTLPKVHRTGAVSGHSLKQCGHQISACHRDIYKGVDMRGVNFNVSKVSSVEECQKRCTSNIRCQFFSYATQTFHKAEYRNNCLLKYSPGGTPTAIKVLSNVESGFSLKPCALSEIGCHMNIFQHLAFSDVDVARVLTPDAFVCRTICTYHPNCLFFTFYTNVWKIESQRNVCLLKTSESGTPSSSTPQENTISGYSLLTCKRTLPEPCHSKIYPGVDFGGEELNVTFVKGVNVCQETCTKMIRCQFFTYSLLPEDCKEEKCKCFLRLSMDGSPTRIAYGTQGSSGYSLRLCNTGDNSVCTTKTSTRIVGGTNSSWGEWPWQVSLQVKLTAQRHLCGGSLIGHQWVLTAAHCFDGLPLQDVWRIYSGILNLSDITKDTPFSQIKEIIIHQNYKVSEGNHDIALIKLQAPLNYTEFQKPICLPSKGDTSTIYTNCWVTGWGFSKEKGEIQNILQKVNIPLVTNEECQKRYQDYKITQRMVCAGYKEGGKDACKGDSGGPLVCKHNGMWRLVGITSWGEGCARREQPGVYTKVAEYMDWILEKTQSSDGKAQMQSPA

[3] = biological target: T1, bovine serum albumin; assay: fluorescence anisotropy titration, BSA titrated into the bicyclic peptide (y axis without label)
[4] = biological target: kallikrein (UniProt P03952 20-638, limits assumed); assay: inferred by the filing from inhibition of kallikrein activity
[5] = biological target: Mdm2 (construct limits not stated) (UniProt Q00987); assay: fluorescence anisotropy titration, Mdm2 titrated into the bicyclic peptide (y axis without label)
[6] = biological target: MDM2 (res 2-125) (UniProt Q00987); assay: fluorescence anisotropy titration, MDM2 (res 2-125) titrated into the peptide

- binding [1]: binds
- binding [2]: binds
- binding [3]: binds
- binding [4]: binds
- binding [5]: binds
B1: bicyclic Fmoc-WGGGA-PEP48L1-PK15L1 (peptide)
peptide: WGGGACVRFGWTCSDRFRNCG
modifications: N-terminal Fmoc; C-terminal amide; the three cysteines linked to TBMB

- binding [6]: binds
B2: PK15L1-PEP48L1 bicyclic (peptide)
peptide: ACSDRFRNCVRFGWTCG
modifications: the three cysteines linked to the TBMB core

Source: patent publication US8685890 (Bicycle, dated 2014)
